Paper PMC7288428, “Amaryllidaceae alkaloids with anti-Trypanosoma cruzi activity” (Parasites & Vectors, 2020)

Experiments:
[1] = test system: HepG2 cells; experiment: HepG2 cell toxicity assay (Alamar Blue); details: TC50 (HepG2) to IC50 (anti-T. cruzi) ratio
[2] = test system: Vero cells; experiment: Vero cell toxicity assay (Alamar Blue); details: TC50 (Vero) to IC50 (anti-T. cruzi) ratio
[3] = test system: T. cruzi intracellular amastigote forms; experiment: Anti-amastigote specific activity assay (Vero host cells); assay type: cell-based, Trypanosoma cruzi

Compound | SI, HepG2 cell toxicity assay [1] | SI, Vero cell toxicity assay [2] | SI with respect to anti-amastigote activity, against HepG2 cells ([3]; TC50 (HepG2) to anti-amastigote IC50 ratio) | SI with respect to anti-amastigote activity, against Vero cells ([3]; TC50 (Vero) to anti-amastigote IC50 ratio) | SI, Vero cell toxicity assay ([2]; listed as hippeastrine) | SI, Vero cell toxicity assay ([2]; listed as lycorine) | SI, HepG2 cell toxicity assay ([1]; listed as narciclasine) | SI, Vero cell toxicity assay ([2]; listed as narciclasine)
O=C(Cn1ccnc1[N+](=O)[O-])NCc1ccccc1 [BNZ, benznidazole, reference compound] | 108.18 | 111.15 |  |  |  |  |  | 
COC1C=CC23c4cc5c(cc4CN(CC2O)C3C1)OCO5 (centres unmarked) [Haemanthamine, haemanthamine] |  | 7.25 |  |  |  |  |  | 
CN1CCC2=C[C@H](O)[C@H]3OC(=O)c4cc5c(cc4[C@H]3[C@@H]21)OCO5 [Hippeastrine, hippeastrine] | 35.29 | 12.67 | 38.69 | 13.89 | 12.7 |  |  | 
O[C@H]1[C@H]2c3cc4c(cc3CN3CCC(=C[C@@H]1O)[C@H]23)OCO4 [Lycorine, lycorine] | 31.24 | 7.44 |  |  |  | < 10 |  | 
CO[C@H]1C=C2[C@H]3C[N@@](Cc4cc5c(cc43)OCO5)[C@H]2C[C@@H]1O [Montanine, montanine] | 23.17 | 2.53 |  |  |  |  |  | 
O=C1N[C@@H]2C(=C[C@H](O)[C@@H](O)[C@H]2O)c2cc3c(c(O)c21)OCO3 [Narciclasine, narciclasine] | 5.52 | 1.33 |  |  |  |  | < 10 | < 10
